The results in this text go back to publication PMC11858854, “In Vitro and In Vivo Assessment of Pharmacokinetic Profile of Peramivir in the Context of Inhalation Therapy” (Pharmaceuticals, 2025).

Protein sequences, listed by entry. Tags and fused reporters are not part of them.
UniProt P08183, whole entry: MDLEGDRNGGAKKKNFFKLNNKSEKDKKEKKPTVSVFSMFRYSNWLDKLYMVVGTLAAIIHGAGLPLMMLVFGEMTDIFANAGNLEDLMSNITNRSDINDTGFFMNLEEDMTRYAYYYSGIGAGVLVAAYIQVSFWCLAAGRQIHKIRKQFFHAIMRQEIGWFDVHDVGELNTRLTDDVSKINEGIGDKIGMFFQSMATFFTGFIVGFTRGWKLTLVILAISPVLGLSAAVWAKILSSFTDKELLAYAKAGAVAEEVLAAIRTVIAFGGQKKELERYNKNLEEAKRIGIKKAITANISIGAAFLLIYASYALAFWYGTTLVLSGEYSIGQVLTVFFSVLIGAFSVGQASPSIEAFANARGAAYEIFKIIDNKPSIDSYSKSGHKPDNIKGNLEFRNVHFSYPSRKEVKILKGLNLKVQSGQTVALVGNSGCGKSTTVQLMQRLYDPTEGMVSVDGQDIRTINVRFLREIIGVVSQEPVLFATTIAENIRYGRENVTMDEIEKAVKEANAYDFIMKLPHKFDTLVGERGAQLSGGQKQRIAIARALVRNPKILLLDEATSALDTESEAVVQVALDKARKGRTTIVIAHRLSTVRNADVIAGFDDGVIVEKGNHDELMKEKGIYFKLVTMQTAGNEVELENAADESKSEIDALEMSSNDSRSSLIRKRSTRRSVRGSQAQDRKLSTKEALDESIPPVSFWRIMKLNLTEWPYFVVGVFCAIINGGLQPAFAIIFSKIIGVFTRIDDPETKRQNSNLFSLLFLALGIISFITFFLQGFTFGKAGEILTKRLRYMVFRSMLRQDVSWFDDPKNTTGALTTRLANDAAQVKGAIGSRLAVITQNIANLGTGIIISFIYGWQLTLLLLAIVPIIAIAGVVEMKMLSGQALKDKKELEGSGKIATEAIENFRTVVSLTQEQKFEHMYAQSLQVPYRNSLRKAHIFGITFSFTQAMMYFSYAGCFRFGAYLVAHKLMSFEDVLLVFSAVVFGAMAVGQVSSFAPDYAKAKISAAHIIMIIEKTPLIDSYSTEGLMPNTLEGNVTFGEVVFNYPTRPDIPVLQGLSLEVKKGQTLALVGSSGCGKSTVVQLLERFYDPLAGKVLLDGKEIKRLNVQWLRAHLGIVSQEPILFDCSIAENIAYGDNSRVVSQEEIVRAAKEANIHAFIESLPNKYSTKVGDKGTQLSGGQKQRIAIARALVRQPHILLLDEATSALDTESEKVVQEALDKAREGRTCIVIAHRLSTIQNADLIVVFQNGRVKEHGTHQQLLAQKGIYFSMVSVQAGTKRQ

For one data set, the target named is human MDR1 (P-gp) (Homo sapiens, UniProt P08183). The experiment in a line: Permeability assay, LLC-PK1-MDR1 cells overexpressing P-gp. Particulars: LLC-PK1-MDR1, 2 μM, Mean ± SD, n = 3.
The next data set addresses P-gp (MDR1) (Homo sapiens, UniProt P08183). The data set is described as above. The settings on record: human, LLC-PK1.
A short description of data set [1]: Bidirectional transport, Calu-3 air-liquid culture model. The settings on record: human.
Data set [2] in a line: Bidirectional transport, NCI-H441/dTHP co-culture model. It counts as in vitro ADME. The settings on record: human, Mean ± SD, n = 3. The procedure: THP-1 cells were cultured in RPMI-1640 medium (Gibco, Thermo, CA, USA) supplemented with 10% FBS, PS (100 U/mL), and β-Mer (0.05 mM) at 37 °C in a humidified 5% CO2 incubator, and the medium was changed every other day. THP-1 cells were seeded at 4 × 10^5 cells/mL in six-well plates and induced for 48 h by adding medium containing a final concentration of 100 ng/mL PMA. The successful differentiation into M0 macrophages was verified by morphological observation and mRNA detection.
Then, the differentiated cells were seeded at 5 × 10^4 cells/well on the surface of NCI-H441 cells 10 days after air–liquid culture and continued to co-culture for 24 h. […] The effective construction of the cellular barrier was acknowledged, and subsequently, the transfer experiment commenced.
We removed the liquid from the apical and basolateral of the Transwell, rinsed the cells three times with a buffer containing HBSS, 10 mM Hepes, and 0.1% BSA (Buffer A), and then added Buffer A (100 µL for the apical side and 600 µL for the basolateral side) for pre-incubation for 30 min at 37 °C. […]

For the next data set, the system named is LLC-PK1 cells. The experiment in a line: Permeability assay, LLC-PK1-MOCK cells. Particulars: LLC-PK1, 2 μM, Mean ± SD, n = 3. It counts as in vitro ADME. From the text: (§1) The experimental methodology was as previously described.
The nature of data set [3]: Permeability assay, LLC-PK1-MOCK cells. The settings on record: pig; LLC-PK1, 2 μM, Mean ± SD, n = 3. It counts as in vitro ADME.
Description: as §1

Data set [4] in a line: Bidirectional transport, NCI-H441 air-liquid culture model. Type of data set: in vitro ADME. Particulars: human, NCI-H441, 2 μM. Here is the method: NCI-H441 cells were cultured in RPMI-1640 medium (Gibco, Thermo, CA, USA) supplemented with 10% FBS and PS (100 U/mL) at 37 °C in a humidified 5% CO2 incubator, and the medium was changed every other day. […] Then, 850 μL of complete medium (containing 200 nM dexamethasone) was added to the basolateral chamber. After approximately 4 days, the TEER value was measured to be about 200 Ω × cm^2, and the medium in the apical surface of the Transwell® was removed. Subsequently, an air-interfaced culture (AIC) was initiated by supplying 650 μL of culture medium to the basolateral chamber only. The culture medium was replaced every other day.
The functional expression of this cell model was confirmed by detecting the mRNA expression of related membrane proteins and probe substrate inhibition experiments. The effective construction of the cellular barrier was acknowledged, and subsequently, the transfer experiment commenced.
We removed the liquid from the apical and basolateral of the Transwell, rinsed the cells three times with a buffer containing HBSS, 10 mM Hepes, and 0.1% BSA (Buffer A), and then added Buffer A (100 µL for the apical side and 600 µL for the basolateral side) for pre-incubation for 30 min at 37 °C. For the transport studies in the apical to basolateral (A-B) direction, 100 μL of pre-warmed test solution (Buffer A containing 2 µM positive control drugs or peramivir) was added to the apical side, while 600 μL of pre-warmed assay buffer, a buffer containing HBSS, 10 mM Hepes, and 1% BSA (Buffer B), was added to the basolateral compartment.
In the bidirectional transport study, the following equations were used to calculate Papp values and ER values:Papp = 1/(A × C0) × (dx/dt)(3) ER = (Papp,BA/Papp,AB) × 100%(4) where A is the surface area of the Transwell insert, C0 is the initial concentration of a compound applied to the donor chamber, t is incubation time, x is the amount of a compound in the receiver chamber, and dx/dt is the flux of the compound across the cell monolayer.

Each structure is given as a SMILES string.

By Papp B→A is commonly meant the apparent permeability from the basolateral to the apical side of a cell layer. What is called Papp A→B is the apparent permeability from the apical to the basolateral side of a cell layer. As for `CC(C)NCC(O)COc1ccc(CC(N)=O)cc1` (stereo not shown) [Atenolol], the “Papp A-B” value at human MDR1 (P-gp) was 1.22 ± 0.11 ×10−6 cm/s; in the data set on LLC-PK1 cells, “BLQ”. For the same compound, the Papp B→A at 2 h, 2 µM is 1.55 ± 0.19 ×10⁻⁶ cm/s on P-gp (MDR1); 0.16 ± 0.04 ×10⁻⁶ cm/s in data set [1]; 1.38 ± 0.24 ×10⁻⁶ cm/s in data set [2]; 0.18 ± 0.02 ×10⁻⁶ cm/s in data set [3]; 1.71 ± 0.12 ×10⁻⁶ cm/s in data set [4] (Mean ± SD, n = 3). Further, the efflux ratio at 2 h, 2 μM came out at 1.27 at P-gp (MDR1), 0.3 ± 0.05 in data set [1] and 1 in data set [4] (read-out: ER). Also, the Papp A→B at 2 h, 2 µM in data set [1] was 0.3 ± 0.05 ×10⁻⁶ cm/s; in data set [2], 1.56 ± 0.17 ×10⁻⁶ cm/s; in data set [4] (Mean ± SD, n = 3), 1.71 ± 0.14 ×10⁻⁶ cm/s.
